These are yes or no findings as the source states them, for the method shown. Binding seen in cells or lysates may run through a third protein. A result given as binding can be weak or reduced; the word gives no strength.
Molecular target: 3xFLAG-UNC-119-MYC (C. elegans) (UniProt Q10658)
Assay: co-IP; HEK293T co-transfected with TIAM-1N539 (HA) and 3xFLAG-UNC-119-MYC; lysis buffer 50mM Tris-Base, 150mM NaCl, 1% IGEPAL CA-630, pH 7.4; anti-FLAG M2 Affinity Gel at 4°C overnight; blots with anti-HA and anti-FLAG

Amino acid sequences for entries named in this document (tags omitted).
UniProt Q10658: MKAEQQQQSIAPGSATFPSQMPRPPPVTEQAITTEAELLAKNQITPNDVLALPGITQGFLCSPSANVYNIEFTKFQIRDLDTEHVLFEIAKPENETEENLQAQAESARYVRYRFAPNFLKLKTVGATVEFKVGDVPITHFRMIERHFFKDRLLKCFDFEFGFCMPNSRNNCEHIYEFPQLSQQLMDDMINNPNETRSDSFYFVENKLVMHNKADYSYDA

**Q.** With “TIAM-1N539 (N-terminal fragment of TIAM-1, tagged with HA) (from UniProt O01847) (domain or fragment)” as the substance, how does the binding read?
**A.** binds

Source: publication PMC9612824
